# Earlier results, collected in patent US20110008426A1, “MODIFIED RELEASE PHARMACEUTICAL COMPOSITIONS COMPRISING MYCOPHENOLATE AND PROCESSES THEREOF” (priority 2008, published 2011).
# At least one compound was matched to its structure with a doubt left.
# Details: at equimolar MPA doses
structure (smiles),measurement,value
"COc1c(C)c2c(c(O)c1C/C=C(\C)CCC(=O)O)C(=O)OC2 [MPS, mycophenolate sodium]",therapeutic equivalence to MMF,therapeutically equivalent to MMF
